Measurements taken from PubChem BioAssay AID1918942 (Molecular Pharmacology Branch, DTP, NCI, 2023).
This continues a long series; more values of the same kind are listed elsewhere.

System: 743489-274-T-PDC complex spheroid viability
Assay: Anticancer human tumor 743489-274-T-PDC patient-derived renal cell carcinoma cell line growth inhibition
Conditions: compound 10 µM; stronger effect = lower value
From the text: Multicellular complex tumor spheroid response to LSD1 Inhibitor Iadademstat in combination with a variety of drugs and investigational agents in selected tumor cell lines
The current study was undertaken to assess response to LSD1 inhibitors in combination with standard-of-care drugs and investigational agents in solid tumor complex spheroid models as well as in the K-562 leukemia. Complex spheroids include a stromal component modeled by human endothelial cells (HUVEC) and fibroblasts modeled by human mesenchymal stem cells (MSCs). The concentration ranges selected for each drug and investigational agent were based upon clinically achievable concentrations if the clinical Cmax of the agent was known.
Compounds. The drugs and investigational agents used in this study are listed on Table 1. All of the agents used, including staurosporine (NSC755774) and gemcitabine (NSC613327), were obtained from the Developmental Therapeutics Program, NCI. FDA-approved anticancer drugs are available from the NCI at http://dtp.nci.nih.gov/branches/dscb/oncology_drugset_explanation.html. Drugs and investigational agents were >95% pure by proton nuclear magnetic resonance (NMR) and liquid chromatography/mass spectrometry (LC/MS). […] If the clinical Cmax for an agent had not been determined, the highest concentration tested was 10 microM. […]
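Further: spheroids exposed to compounds for 7 days before readout; 100% = DMSO vehicle control wells.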

Q: NC1CCC(NC2CC2c2ccccc2)CC1 (stereo unspecified) was tested. Which viability, T/C did it give?
A: 105%
